Data as given in article doi:10.1101/842682.
No constants are given. Whether binding was seen depends on the method and setting. Binding seen in cells or lysates may run through a third protein. Some binding calls cover weakened binding; strength is not graded here. Where a sequence is shown, tags or fusion partners need not be part of it.

The chains behind the UniProt entries cited, without tags or fusion partners. Residues count along the entry.
UniProt A2AUM9, residues 1075-1383: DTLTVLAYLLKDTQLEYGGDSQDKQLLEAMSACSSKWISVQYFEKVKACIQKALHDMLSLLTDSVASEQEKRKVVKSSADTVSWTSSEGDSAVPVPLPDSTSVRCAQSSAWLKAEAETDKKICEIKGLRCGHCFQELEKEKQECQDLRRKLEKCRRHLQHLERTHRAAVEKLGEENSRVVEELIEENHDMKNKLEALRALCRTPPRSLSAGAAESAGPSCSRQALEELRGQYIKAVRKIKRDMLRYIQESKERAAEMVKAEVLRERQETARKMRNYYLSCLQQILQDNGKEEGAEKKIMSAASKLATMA

Molecular target: T1, His-Cep63 (UniProt Q3UPP8)
T1 sequence: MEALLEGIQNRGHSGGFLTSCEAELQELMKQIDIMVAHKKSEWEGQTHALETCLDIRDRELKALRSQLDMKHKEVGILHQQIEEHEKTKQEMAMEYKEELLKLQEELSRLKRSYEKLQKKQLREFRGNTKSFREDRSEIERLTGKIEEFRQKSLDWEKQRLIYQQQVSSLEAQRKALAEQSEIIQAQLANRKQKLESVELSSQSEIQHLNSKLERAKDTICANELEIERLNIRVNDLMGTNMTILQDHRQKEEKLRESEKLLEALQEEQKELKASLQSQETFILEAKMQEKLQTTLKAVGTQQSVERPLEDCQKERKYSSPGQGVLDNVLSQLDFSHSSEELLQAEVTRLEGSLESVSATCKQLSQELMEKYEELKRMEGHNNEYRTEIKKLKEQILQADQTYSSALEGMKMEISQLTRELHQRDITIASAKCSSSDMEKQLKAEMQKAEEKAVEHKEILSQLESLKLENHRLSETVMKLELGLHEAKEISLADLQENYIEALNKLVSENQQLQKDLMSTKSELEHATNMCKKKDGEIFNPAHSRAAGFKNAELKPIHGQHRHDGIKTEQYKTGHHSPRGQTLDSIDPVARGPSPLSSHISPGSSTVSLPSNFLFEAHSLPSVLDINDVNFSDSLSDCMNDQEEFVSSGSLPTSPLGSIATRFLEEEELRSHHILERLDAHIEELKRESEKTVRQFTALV
Assay: pull-down

## Cep152M (from UniProt A2AUM9 1075-1383) (domain or fragment)
  binding: binds
